In PubChem BioAssay AID758 (NMMLSC, 2007):
Out of some 190,000 compounds screened, about 110 (0.058%) were called active. The inconclusive results got no clear call from the source; some entries with a clear call stand among them for comparison.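 Rule for the calls: active = fluorescent GTP binding to Rab7 beads changed by at least 20 points from the 100% baseline, either direction, mostly lower; inconclusive = compound itself probably fluorescent, or too few beads counted; inactive = the rest.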

Each compound was assayed on Rab7 GTPase wild type (dog), Bodipy-FL-GTP binding (assay: modulators of GTP binding to Rab7, primary screen, biochemical, wildtype, multiplex bead flow cytometry (AID 758;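 note: median green fluorescence of bound Bodipy-FL-GTP per Rab7 bead population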)). Conditions: GST-Rab7 beads, fluorescent GTP binding, at 10 µM, actives lie on both sides, untreated = 100%, excess cold GTP = 0%.

Row | Compound | GTP binding activity (percent of control)
1 | COc1ccc(/C=N/NC(=O)c2ccc(COc3cccc4cccnc34)cc2)cc1OC | inconclusive: 97%
2 | COc1ccc(CNC(=O)CSc2n[nH]c(C)c2[N+](=O)[O-])cc1 | inactive: 101%
3 | CCN(CC)S(=O)(=O)c1ccc2nc(NC(=O)c3cccs3)sc2c1 | inconclusive: 89%
4 | O=C(NCc1ccccn1)C(=O)N/N=C/c1ccc2c(c1)OCO2 | inconclusive: 96%
5 | COC(=O)[C@H](C)[C@H]1C[C@]1(C)[C@H](NC(=O)OCc1ccccc1)c1ccccc1 | inconclusive: 100%
6 | O=C(N/C(=C\c1ccccc1)C(=O)N1CCCCCC1)c1ccccc1 | inconclusive: 96%
7 | CCS(=O)(=O)N1CCC(C(=O)NCCCOC)CC1 | inconclusive: 103%
8 | COc1cc(C#CC#CCN2CCCCC2)ccc1O | inactive: 96%
9 | Cc1sc2nc(CN3CCOCC3)[nH]c(=S)c2c1C | inconclusive: 92%
10 | Cc1c([N+](=O)[O-])cc(C(=O)Oc2cccc(C(=S)N3CCOCC3)c2)cc1[N+](=O)[O-] | inactive: 111%
11 | COCCN(C(=S)Nc1ccc(C(C)C)cc1)C(C)c1cccs1 (stereo unspecified) | inconclusive: 91%
12 | CCN1CCN(c2ncc(C(=O)Nc3c(F)cc(F)cc3Br)c3ccccc23)CC1 | inconclusive: 100%
13 | CCCc1cc(NCc2ccccn2)n2c(nc3ccccc32)c1C#N | inactive: 93%
14 | CCOC(=O)C1=C(CSc2nc(C)ccc2C#N)OC(N)=C(C#N)C1c1cccc(OC)c1OC (stereo unspecified) | inconclusive: 99%
15 | CC(C)CNC(=O)c1nc(-c2ccccc2)n(-c2ccccc2)n1 | inconclusive: 99%
16 | O=C(NC1CCNCC1)C1CC1 | inactive: 103%
17 | Cc1cccc(-n2c(C)nc3cc(C(=O)NCc4ccc5c(c4)OCO5)ccc32)c1 | inconclusive: 84%
18 | CN1CCN(Cc2nc3ccccc3c(=O)n2Cc2nc(-c3ccccc3F)cs2)CC1 | inactive: 97%
19 | c1ccc(OCc2nc3ccccc3[nH]2)cc1 | inconclusive: 103%
20 | Cc1ccccc1/C=C1\SC(=S)N(/N=C/c2cc([N+](=O)[O-])ccc2O)C1=O | inconclusive: 90%
21 | Nc1nc(-c2ccc(Cl)cc2)nn1C(=O)c1cccnc1 | inconclusive: 102%
22 | O=C1Nc2ccc(NS(=O)(=O)c3cccs3)c3cccc1c23 | inconclusive: 93%
23 | COc1ccc(-c2csc(NC(=S)NC(=O)c3cccs3)n2)cc1OC | inconclusive: 85%
24 | O=Cc1c(NCc2ccco2)nc2ccccn2c1=O | inconclusive: 93%
25 | COc1ccc(NC(=O)c2ccco2)cc1N | inconclusive: 102%
26 | Cc1cc2nc(-c3ccc(SCC(=O)Nc4nccs4)nc3)[nH]c2cc1C | inconclusive: 97%

Individual results from the entries so far.
In GTP binding activity (percent of control), COc1ccc(NC(=O)c2ccco2)cc1N is entered as inconclusive: 102%
In GTP binding activity (percent of control), COC(=O)[C@H](C)[C@H]1C[C@]1(C)[C@H](NC(=O)OCc1ccccc1)c1ccccc1 is entered as inconclusive: 100%
